# In the supplement of paper PMC8728848:
# This is one part of the list.
# B1: Ovorubin (Pomacea canaliculata), J7I2T6 (protein)
# chain: MFVATSLLLAIATLVVRASPHNYLIMDIEPPKSVSERDILNLLSPLQVKHSFRVTGSTRLLIVIRLDAQSYEKLDEITVPGKVEVIPAVNMADTMERCGVSWPRVELTDDNVTLFESESTLTDVTKEQLKAMLIGYGEHMSGLLQAHRFEYYQAAGATPHRHFVFVNSVPDEIEVFGREGVDIWGGPGEFVVKPQYVTRI
# Legend:
# Assay in all cases: glycan array binding signal (z-score within array); higher = stronger binding
# Settings in all cases: glycan notation: IUPAC condensed, linker removed
# [1] = target: Fuc(a1-2)[Gal(a1-3)]Gal(b1-4)GlcNAc(b1-2)Man(a1-3)[Fuc(a1-2)[Gal(a1-3)]Gal(b1-4)GlcNAc(b1-2)Man(a1-6)]Man(b1-4)GlcNAc(b1-4)GlcNAc
# Method in brief: (§1)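 Glycan array binding is given as a within-array Z-score, which can be read as non-binding when negative. The arrays, 3228 of them, came from the Consortium for Functional Glycomics database and were retained only where the protein sequence was available. Z-scores were averaged across arrays of the same protein sequence at different concentrations or buffers and across linkers.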
# [2] = target: Fuc(a1-2)[Gal(a1-3)]Gal(b1-4)GlcNAc(b1-2)Man(a1-3)[Fuc(a1-2)[Gal(a1-3)]Gal(b1-4)GlcNAc(b1-2)Man(a1-6)]Man(b1-4)GlcNAc(b1-4)[Fuc(a1-6)]GlcNAc
# Method in brief: as §1
# [3] = target: Fuc(a1-2)[Gal(a1-3)]Gal(b1-4)GlcNAc(b1-3)GalNAc
# Method in brief: as §1
# [4] = target: Fuc(a1-2)[Gal(a1-3)]Gal(b1-4)GlcNAc(b1-3)[Fuc(a1-2)[Gal(a1-3)]Gal(b1-4)GlcNAc(b1-6)]GalNAc
# Method in brief: as §1
# [5] = target: Fuc(a1-2)[Gal(a1-3)]Gal(b1-4)GlcNAc(b1-6)GalNAc
# Method in brief: as §1
# [6] = target: Fuc(a1-2)[Gal(a1-3)]Gal(b1-4)[Fuc(a1-3)]Glc
# Method in brief: as §1
# [7] = target: Fuc(a1-2)[Gal(a1-3)]Gal(b1-4)[Fuc(a1-3)]GlcNAc
# Method in brief: as §1
# [8] = target: Fuc(a1-2)[Gal(a1-3)]Gal(b1-4)[Fuc(a1-3)]GlcNAc(b1-3)GalNAc
# Method in brief: as §1
# [9] = target: Fuc(a1-2)[Gal(a1-4)]Gal(b1-4)GlcNAc
# Method in brief: as §1
# [10] = target: Fuc(a1-2)[GalNAc(a1-3)]Gal
# Method in brief: as §1
# [11] = target: Fuc(a1-2)[GalNAc(a1-3)]Gal(b1-3)GalNAc(a1-3)[Fuc(a1-2)]Gal(b1-4)GlcNAc
# Method in brief: as §1
# [12] = target: Fuc(a1-2)[GalNAc(a1-3)]Gal(b1-3)GalNAc(b1-3)Gal(a1-4)Gal(b1-4)Glc
# Method in brief: as §1
# [13] = target: Fuc(a1-2)[GalNAc(a1-3)]Gal(b1-3)GlcNAc
# Method in brief: as §1
# [14] = target: Fuc(a1-2)[GalNAc(a1-3)]Gal(b1-3)GlcNAc(b1-2)Man(a1-3)[Fuc(a1-2)[GalNAc(a1-3)]Gal(b1-3)GlcNAc(b1-2)Man(a1-6)]Man(b1-4)GlcNAc(b1-4)GlcNAc
# Method in brief: as §1
# [15] = target: Fuc(a1-2)[GalNAc(a1-3)]Gal(b1-3)GlcNAc(b1-2)Man(a1-3)[Fuc(a1-2)[GalNAc(a1-3)]Gal(b1-3)GlcNAc(b1-2)Man(a1-6)]Man(b1-4)GlcNAc(b1-4)[Fuc(a1-6)]GlcNAc
# Method in brief: as §1
# [16] = target: Fuc(a1-2)[GalNAc(a1-3)]Gal(b1-3)GlcNAc(b1-3)GalNAc
# Method in brief: as §1
# [17] = target: Fuc(a1-2)[GalNAc(a1-3)]Gal(b1-3)GlcNAc(b1-6)GalNAc
# Method in brief: as §1
# [18] = target: Fuc(a1-2)[GalNAc(a1-3)]Gal(b1-4)Glc
# Method in brief: as §1
# [19] = target: Fuc(a1-2)[GalNAc(a1-3)]Gal(b1-4)GlcNAc
# Method in brief: as §1
# [20] = target: Fuc(a1-2)[GalNAc(a1-3)]Gal(b1-4)GlcNAc(b1-2)Man
# Method in brief: as §1
# [21] = target: Fuc(a1-2)[GalNAc(a1-3)]Gal(b1-4)GlcNAc(b1-2)Man(a1-3)[Fuc(a1-2)[GalNAc(a1-3)]Gal(b1-4)GlcNAc(b1-2)Man(a1-6)]Man(b1-4)GlcNAc(b1-4)GlcNAc
# Method in brief: as §1
# [22] = target: Fuc(a1-2)[GalNAc(a1-3)]Gal(b1-4)GlcNAc(b1-2)Man(a1-3)[Fuc(a1-2)[GalNAc(a1-3)]Gal(b1-4)GlcNAc(b1-2)Man(a1-6)]Man(b1-4)GlcNAc(b1-4)[Fuc(a1-6)]GlcNAc
# Method in brief: as §1
binder,measurement,setting,value
B1,glycan array binding signal (z-score),[1],-0.156
same,glycan array binding signal (z-score),[2],0.141
same,glycan array binding signal (z-score),[3],1.88
same,glycan array binding signal (z-score),[4],1.27
same,glycan array binding signal (z-score),[5],0.091
same,glycan array binding signal (z-score),[6],-0.479
same,glycan array binding signal (z-score),[7],-0.405
same,glycan array binding signal (z-score),[8],-0.704
same,glycan array binding signal (z-score),[9],-0.639
same,glycan array binding signal (z-score),[10],-0.52
same,glycan array binding signal (z-score),[11],-0.862
same,glycan array binding signal (z-score),[12],-0.914
same,glycan array binding signal (z-score),[13],0.15
same,glycan array binding signal (z-score),[14],-0.695
same,glycan array binding signal (z-score),[15],-0.668
same,glycan array binding signal (z-score),[16],-0.128
same,glycan array binding signal (z-score),[17],2.54
same,glycan array binding signal (z-score),[18],-0.263
same,glycan array binding signal (z-score),[19],-0.588
same,glycan array binding signal (z-score),[20],0.353
same,glycan array binding signal (z-score),[21],-0.645
same,glycan array binding signal (z-score),[22],-0.003

# Nothing new here: an excerpt of the list.
binder,measurement,setting,value
B1,glycan array binding signal (z-score),[9],-0.639
same,glycan array binding signal (z-score),[10],-0.52
same,glycan array binding signal (z-score),[11],-0.862
same,glycan array binding signal (z-score),[12],-0.914
same,glycan array binding signal (z-score),[13],0.15
same,glycan array binding signal (z-score),[14],-0.695
